## Library screening results

A: 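Whole-cell assay for inhibitors of Mycobacterium tuberculosis growth, labelled Cornell in the record; the read-out is not stated. The concentration is filed as 10 mM, unlikely as a test dose, so the dose is not known. Higher means stronger inhibition (inferred from two other growth screens of the library). Of about 53,000 compounds tested this way, about 900 (1.7%) reached 50% or more in at least one test.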
B: 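Assay on Mycobacterium tuberculosis, filed only as a heat shock assay from Cornell; the read-out is not stated. The concentration is filed as 10 mM, unlikely as a test dose, so the dose is not known. Direction is inferred from retests: higher values go with stronger inhibition. Size under these conditions: about 69,000 compounds, about 930 of them at 50% or above in at least one test.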

Values are the deposited “Percent Effect”, in %. The controls that fix the scale are not given in the record; negative values are as filed. The compounds are a random part of those screened. Two or more numbers in one place are separate tests of the same structure; such repeats can differ widely. A dash means the value is not listed here; it may have been measured.

SMILES | A | B
CCC(NC(=O)NCc1cccc(N(C)C)n1)c1nccs1 (centres unmarked) | 0.2467 | -1.618
O=C(Cn1cncn1)NCC1(O)CCCc2ccccc21 (centres unmarked) | -4.618 | -12.82
CNc1cccc(C2CCCN(C(C)=O)C2)n1 (centres unmarked) | - | -7.532
c1cnc(N2CCN(Cn3nccc3-c3cccnc3)CC2)nc1 | - | -15.4
Cc1ccc(C)c(NC(=O)Nc2c[nH]c(=O)[nH]c2=O)c1 | 5.026 | 20.49
Cc1nn(C)cc1-c1ccnc(N(C)Cc2ccc(F)cc2)n1 | 35.62 | -20.67
CCN(Cc1nc2c(cnn2C)c(=O)[nH]1)Cc1ccco1 | -58.73 | 11.1
CC(C)(C)CNC[C@H]1Cn2c(-c3ccccc3)cnc2CO1 | -11.04 | -37.37
CCOC(=O)CC(c1cccc(OC)c1OC)c1c(C)[nH][nH]c1=O (centres unmarked) | 39.38 and 50.02 | -0.673 and -10.05
CC(=O)N1CCC(C(=O)NCCc2c[nH]c3cc(C)ccc23)CC1 | 2.514 | -4.681
CN1CCC(c2nnc(CN3CCCC3)n2C2CC2)CC1 | - | -11.23
Cc1nn(C)c(C)c1C1CCCN1CCOc1cccc(C#N)c1 (centres unmarked) | 10.28 | -6.327
CCC(=O)N1CCCC1c1nccnc1Nc1ncccn1 (centres unmarked) | -4.647 | 0.4031
CCN(Cc1c(F)cccc1Cl)c1cc(C2CCNCC2)nc(C)n1 | 44.03 | 69.57
CC(=O)c1cccc(NC(=O)NCCc2nnc[nH]2)c1 | 27.15 | -10.64
NC1(c2nc(-c3cccs3)cc(=O)[nH]2)CCCC1 | -47.24 | -25.86
O=C(O)C(F)(F)F.O=C(O)C(F)(F)F.[H][C@@]12CCN(c3ncc(F)cn3)[C@]1([H])CC[C@@H](C(=O)NCc1ccccn1)O2 | 14.47 | 2.793
CCc1nc(N)nc(N2CCCC3(CN(C)C(=O)O3)C2)c1C (centres unmarked) | 14.41 | -1.052
CC(=O)N1CCC(Cc2cnc(-c3c(C)nn(C)c3C)cn2)C1 (centres unmarked) | - | 11.87
CC(=O)NCC(=O)N1Cc2nccn2CC(CN2CCCC2=O)C1 (centres unmarked) | 7.043 | 10.34
O=C(NCCCN1CCOCC1)c1nc(-c2ccc3cc[nH]c3c2)no1 | 33.02 | 11.55
Cc1ccc(C(=O)NCCC2CN(c3cnn(C)c(=O)c3)CCO2)s1 (centres unmarked) | 25.5 | 6.31
COc1cc(NC(=O)c2ccc(C)c(F)c2)c(C(=O)N(C)C)cc1OC | -8.946 | -1.135
N#Cc1ccc(F)c(CNC(=O)NCCC(=O)NC2CCCC2)c1 | - | 0.1015
O=C(O)C(F)(F)F.O=C(O)C(F)(F)F.c1ccc(OCC2CC3(CCN(c4ncccn4)CC3)CO2)nc1 (centres unmarked) | - | -12.24
O=C(NCCc1ccccc1)C1CCN(C(=O)Cn2cncn2)C1 (centres unmarked) | -12.41 | -3.06
Cc1ccc(CNC(=O)c2cc(C)n(C)n2)o1 | - | 8.341
[H][C@@]12COC[C@H](C(=O)N3CCCO3)[C@]1([H])CN(Cc1c(C)noc1C)C2 | -10.96 | 2.299
O=C(O)C(F)(F)F.O=C(O)C(F)(F)F.O=C(O)C(F)(F)F.[H][C@@]12CO[C@@H](CN(C)Cc3cccnc3)[C@]1([H])CCN(Cc1ccoc1)C2 | 14.32 | 7.414
COc1nn(C)c2c1CCCN(S(=O)(=O)c1ccccc1F)C2 | -5.7 | 9.005
CCN(CC)C(=O)Nc1ccc(C(=O)N(C)C)c(C)c1 | 11.42 | 6.636
CSC(C)C(=O)NCc1ccc(-n2cncn2)nc1 (centres unmarked) | -12.29 | 16.41
N#Cc1ccc(C(=O)N(Cc2ccncc2)C2CC2)cc1 | 28.17 | 12.83
CN(CCCNC(=O)NCc1ccncc1)CC(F)(F)F | 0.6834 | 1.106
COC(=O)CNC(=O)CCCn1cnc2ccccc2c1=O | 3.303 | -11.87
CN1CC=C(c2noc(CCC(=O)N3CCOCC3)n2)CC1 | 22.68 | 12.78
COCCN1CCc2cc(C(=O)NC(C)C)c(NCC(C)C)nc2CC1.O=C(O)C(F)(F)F.O=C(O)C(F)(F)F | 1.189 | -22.14
Cc1ccc(CNC(C)c2ccc3[nH]c(=O)[nH]c3c2)s1 (centres unmarked) | 8.061 | 19.54
CCCc1cc(C(=O)NC(COC)c2ccnn2C)no1 (centres unmarked) | -26.41 | -21.68
Cc1nccn1Cc1nnc(C2CCCN(c3ncccn3)C2)n1C (centres unmarked) | -33.54 | -18.54
Cc1cc(C)n(CC(C)CNC(=O)NCc2ccco2)n1 (centres unmarked) | - | -25.18
O=S(=O)(c1ccccc1)N1CCC[C@]2(C[C@H](OCC3CC3)CO2)C1 | 3.001 | -21.61
CC(=O)N1CCC(Oc2ccc(Cl)cn2)CC1 | -29.37 | 10.9
CCC(CC)n1nc(C)cc1NC(=O)C1CCOC1 (centres unmarked) | 33.07 | -1.102
COc1ccc(C(CNS(=O)(=O)c2cn(C)nc2C)N2CCCC2)cc1.Cl (centres unmarked) | -43.41 | -8.275
Cc1cnn(CCC(=O)N2CCCN(c3nc(C)cs3)CC2)c1 | - | -19.04
Nc1nccc(C2CCCN2CCc2ccccc2)n1 (centres unmarked) | 10.95 | 10.92
Cc1ncc2c(n1)CCCC2NC(=O)c1ccccc1Cn1cncn1 (centres unmarked) | -8.131 | -20.37
O=C(C1CCOC1)N1CCN(Cc2cccnc2)c2ncccc2C1 (centres unmarked) | 15.73 | -6.508
Cc1n[nH]c(-c2ccc(NC(=O)C(C)(C)N3CCN(C)CC3)cc2)n1 | 4.825 | 2.75
O=C(c1cc(=O)[nH]c(=O)[nH]1)N1CCCC(CO)(CC2CC2)C1 (centres unmarked) | -10.76 | -3.35
Cc1nsc(N2CCCN(c3nc(C4CC4)ns3)CC2)n1 | -24.71 | 23.41
O=C(NCCN1CCOCC1)C1=NOC2(CCN(Cc3nccs3)C2)C1 (centres unmarked) | -1.549 | -26.75
CNC(=O)c1cccc(CCNc2ncc(Br)cn2)c1 | -0.4443 | -18.7
Cn1nnc2c1C(COCC1CC1)CN(C(=O)Cc1cccs1)C2 (centres unmarked) | -0.6673 | 8.106
Cc1nsc(NCc2ccc(S(=O)(=O)N(C)C(C)C)cc2)n1 | -0.1697 | -12.37
COc1ccc(C2CC(=O)NCc3nc4ccccn4c32)cn1 (centres unmarked) | - | -10.24
C[C@H]1CN(C)C[C@@]12COCCN(C(=O)Cc1ccccc1)C2.O=C(O)C(F)(F)F | 12.77 | -37.17
Cn1cccc1CNCC1CCCn2cc(C(C)(C)C)nc21 (centres unmarked) | 37.41 | 1.286
CN1C(=O)C(c2ccccc2)CC12CCN(CCN)CC2 (centres unmarked) | 26.29 | -8.588
CCc1nc2n(n1)CC(NCc1nc(-c3cccnc3)no1)CC2 (centres unmarked) | -3 | 25.01
O=C(C1CN(c2ncc(F)cn2)CC12CCOCC2)N1CC=CC1.O=C(O)C(F)(F)F (centres unmarked) | -18.24 | -5.109
[H][C@@]12OCCN(C(=O)c3ccc(C)nc3)[C@@]1([H])CC[C@@H]2OC | 11.95 | -1.256
CC(C)c1cc(N(C)Cc2noc(C3CCCC3)n2)n2nccc2n1 | 16.28 | 67.06
Cc1nnc2ccc(N3CCN(Cc4nccn4C)CC3)nn12 | -33.82 | -32.02
O=C(O)C(F)(F)F.[H][C@@]12CCN(Cc3sccc3C)C[C@]1(C(=O)N1CCCO1)CCO2 | -4.331 | -28.04
Cc1nsc(C(=O)N2CCc3ccccc3C2)n1 | -0.9978 | 0.7957
COc1ccccc1[C@@H]1CN(Cc2csc(C(C)=O)c2)C[C@H]1C(=O)O | -15.44 | -1.413
COc1ccc(C2=CCN(C(=O)CN(C)S(C)(=O)=O)CC2)cc1 | - | -4.693
CC(C)c1cc(N2CCC[C@H](N)C2)n2nccc2n1 | - | 15.13
CNC(=O)CN(C)C(=O)c1cc2ccccc2cc1OC | 14.7 | 16.61
CCN1CCn2nc(CCC(=O)N3CCCC3)cc2C1 | 5.663 | 11.63
CCn1ccnc1CN1CCC(Oc2ccccc2F)(C(=O)O)CC1 | 16.37 | 4.368
COc1ccc(C)cc1CN1CCn2cccc2C1C (centres unmarked) | 49.43 | 86.02
O=C(O)C(F)(F)F.[H][C@@]12CCN(Cc3ccc(C)cc3)C[C@]1([H])O[C@@H](C(=O)N(C)C)C2 | 2.929 | -22.41
Cc1nccn1C1CCCN(C(=O)c2cccc(S(C)(=O)=O)c2)C1 (centres unmarked) | - | 7.822
COc1cccc2c1OCC(CNc1ccc(C)nn1)C2 (centres unmarked) | 22.84 | 1.767
CN(CC(=O)N1CCC(C(O)c2ccccc2)CC1)c1cnccn1 (centres unmarked) | 18.44 | 0.09346
Cn1nccc1-c1ncc2c(c1C(=O)O)CCN(Cc1ccccc1)C2.O=C(O)C(F)(F)F.O=C(O)C(F)(F)F.O=C(O)C(F)(F)F | -12.28 | -32.46

Once more, the final 6:

{"smiles": "COc1ccc(C)cc1CN1CCn2cccc2C1C", "stereo": "centres unmarked", "A": 49.43, "B": 86.02}
{"smiles": "O=C(O)C(F)(F)F.[H][C@@]12CCN(Cc3ccc(C)cc3)C[C@]1([H])O[C@@H](C(=O)N(C)C)C2", "A": 2.929, "B": -22.41}
{"smiles": "Cc1nccn1C1CCCN(C(=O)c2cccc(S(C)(=O)=O)c2)C1", "stereo": "centres unmarked", "B": 7.822}
{"smiles": "COc1cccc2c1OCC(CNc1ccc(C)nn1)C2", "stereo": "centres unmarked", "A": 22.84, "B": 1.767}
{"smiles": "CN(CC(=O)N1CCC(C(O)c2ccccc2)CC1)c1cnccn1", "stereo": "centres unmarked", "A": 18.44, "B": 0.09346}
{"smiles": "Cn1nccc1-c1ncc2c(c1C(=O)O)CCN(Cc1ccccc1)C2.O=C(O)C(F)(F)F.O=C(O)C(F)(F)F.O=C(O)C(F)(F)F", "A": -12.28, "B": -32.46}

From ChEMBL document CHEMBL3988442, “University of Dundee, Small-Polar-MMV Screening Library” (2021).